According to paper PMC9910796:
Results are given in words; binding and its absence hold for the method and conditions named. In cells and extracts the contact can be indirect. Some binding calls cover weakened binding; strength is not graded here.

Target: pp220NT-V5 (N-terminal fragment of polyprotein pp220 comprising the p5 and p34 regions, fused to a [change] tag) (African swine fever virus) (UniProt Q08358)
Assay: co-IP; […] (0.1% Triton X-100 in PBS, […]

## pEP84R-Flag (ASFV transmembrane protein pEP84R with a C-terminal 3x-Flag tag) (from UniProt Q07383 1-84)
  binding: binds
